Test results as given in US5502033A, “Antimicrobial polypeptide compound a pharmaceutical composition comprising the same, and a method for treating infectious diseases” (Fujisawa Pharmaceutical Co., Ltd., priority 1989, dated 1996).
At least one peptide structure holds a part that was inferred or is arguable (an end, a ring closure or a residue). Numbered stars: 1 amine (or outer) side, 2 acyl side, 3 side chain; on linkers, the order of the positions; unused ones are H or OH. Bridge positions count the residues as written; N and C are the ends. Square brackets hold non-standard residues; d marks the D form. Peptide text beside a SMILES is read from it. * marks the point of attachment. ξ: configuration not given here. ξOrn(4,5-diOH) = O=C(C(CC(O)C(O)N[*:3])N[*:1])[*:2]; X1 = O=C(C(N[*:1])C(O)C(O)c1ccc(O)c(O)c1)[*:2]; ξPro(3ξ-OH,4ξ-Me) = CC1CNC(C(=O)O)C1O; X2 = NC(=O)CC(O)C(N[*:1])C(=O)[*:2]; Palmitoyl = CCCCCCCCCCCCCCCC(=O)*; Hyp = O=C(O)[CH]1C[CH](O)CN1

System: Candida albicans FP633
Assay: Antimicrobial activity (2), pulp-disc diffusion assay
Assay type: cell-based
Details: disc containing 2 μg; Candida albicans FP633 on YNBD agar medium, 37° C. for 16 hours

CCCCCCCCCCCCCCCC(=O)NC1CC(O)C(O)NC(=O)C2C(O)C(C)CN2C(=O)C(C(O)CC(N)=O)NC(=O)C(C(O)C(O)c2ccc(O)c(O)c2)NC(=O)C2CC(O)CN2C(=O)C(C(C)O)NC1=O (stereo not shown) [FR133302] (Palmitoyl-[ξOrn(4,5-diOH)]T[Hyp][X1][X2][ξPro(3ξ-OH,4ξ-Me)]; lactam 1-C; configuration not given here)
Diameter of inhibition zone: 16 mm
